PubChem BioAssay AID504808 – Drosophila RNAi Screening Center | 2011

Assay: 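Genes whose loss lifts activity of an E2F-responsive reporter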 (primary screen)
System: Drosophila S2 cells
Reagent: long dsRNA against Drosophila genes
Measured: 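Dual luciferase plate measurements; E2F-specific signal taken as firefly over Renilla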
Scale: E2F firefly: higher = more E2F reporter activity; Renilla normaliser: higher = more normaliser reporter signal
Hit rule: 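a knock-down counted as active when the firefly/Renilla E2F signal rose above 50%, a threshold chosen arbitrarily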
The deposit covers about 21,000 reagents; below is a random part of those that have a named target and a result. Of all reagents, 18 (0.084%) are marked active. 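Raw counts without plate normalisation, one of two replicates; the ratio scores behind the calls were not deposited.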 Reagent sequences are not shown. Not stated in the record: the amount of reagent, the time to read-out.

| Target gene | amplicon | E2F firefly, rep 1 | Renilla normaliser, rep 1 | Outcome |
| --- | --- | --- | --- | --- |
| ida | DRSC08163 | 1.03e5 | 4298 | inactive |
| CG32121 | DRSC09265 | 1.24e5 | 4008 | inactive |
| Cbp20 | DRSC16601 | 1.28e5 | 7608 | inactive |
| Taf2 | DRSC11298 | 70481 | 3277 | inactive |
| Sras | DRSC11287 | 96168 | 4161 | inactive |
| CG17681 | DRSC02632 | 96417 | 4070 | inactive |
| svp | DRSC12899 | 85228 | 2602 | inactive |
| svp | DRSC15311 | 69001 | 5755 | inactive |
| svp | DRSC17075 | 1.42e5 | 7538 | inactive |
| snRNA:U1:95Cc | DRSC13640 | 88814 | 2712 | inactive |
| Abi | DRSC14099 | 80463 | 4119 | inactive |
| CG11768 | DRSC14377 | 1.38e5 | 6682 | inactive |
| CG34224 | DRSC05269 | 1.38e5 | 4956 | inactive |
| Gr28a | DRSC02290 | 1.47e5 | 5395 | inactive |
| CG13585 | DRSC04221 | 1.12e5 | 4508 | inactive |
| CG32281 | DRSC08236 | 72545 | 3586 | inactive |
| tut | DRSC08909 | 1.25e5 | 4304 | inactive |
| Snx21 | DRSC00564 | 94978 | 4070 | inactive |
| CG14591 | DRSC04868 | 1.08e5 | 4593 | inactive |
| CG8852 | DRSC00719 | 1.42e5 | 5263 | inactive |
| nAChRalpha4 | DRSC11925 | 1.01e5 | 4286 | inactive |
| CG12075 | DRSC17801 | 7570 | 924 | inactive |
| conv | DRSC07213 | 1.06e5 | 4122 | inactive |
| twi | DRSC04720 | 87156 | 4241 | inactive |
| CG11600 | DRSC14332 | 1.26e5 | 5375 | inactive |
| kri | DRSC10515 | 78058 | 3534 | inactive |
| exp | DRSC06313 | 85323 | 4165 | inactive |
| Taf5 | DRSC07562 | 2394 | 169 | inactive |
| CG8036 | DRSC16366 | 1.32e5 | 6640 | inactive |
| CG34187 (retired record) | DRSC05543 | 1.39e5 | 5199 | inactive |
| CG10428 | DRSC02054 | 84826 | 3679 | inactive |
| CG42246 | DRSC17520 | 85068 | 2719 | inactive |
| CAH14 | DRSC04234 | 86912 | 3729 | inactive |
| phu | DRSC16390 | 1.50e5 | 7067 | inactive |

5 neighbouring reagents from above:
| Target gene | amplicon | E2F firefly, rep 1 | Renilla normaliser, rep 1 | Outcome |
| --- | --- | --- | --- | --- |
| svp | DRSC17075 | 1.42e5 | 7538 | inactive |
| snRNA:U1:95Cc | DRSC13640 | 88814 | 2712 | inactive |
| Abi | DRSC14099 | 80463 | 4119 | inactive |
| CG11768 | DRSC14377 | 1.38e5 | 6682 | inactive |
| CG34224 | DRSC05269 | 1.38e5 | 4956 | inactive |
